Source: paper PMC3553376
No constants are given. Whether binding was seen depends on the method and setting. In cells and extracts the contact can be indirect. Some results given as binding are weak or reduced against the parent protein; the word gives no strength.

Biological target: YopN-GSK (Y. pestis) (UniProt P68640)
Assay: cross-linking + co-IP

“SycN/YscB chaperone (from UniProt P61380;Q56973) (complex)” was tested, and the binding was “binds”.
